{"source": "paper PMC10069049", "binders": {"B1": {"name": "PDIA4 (protein, UniProt P13667 21-645)", "chain": "VAGAEGPDEDSSNRENAIEDEEEEEEEDDDEEEDDLEVKEENGVLVLNDANFDNFVADKDTVLLEFYAPWCGHCKQFAPEYEKIANILKDKDPPIPVAKIDATSASVLASRFDVSGYPTIKILKKGQAVDYEGSRTQEEIVAKVREVSQPDWTPPPEVTLVLTKENFDEVVNDADIILVEFYAPWCGHCKKLAPEYEKAAKELSKRSPPIPLAKVDATAETDLAKRFDVSGYPTLKIFRKGRPYDYNGPREKYGIVDYMIEQSGPPSKEILTLKQVQEFLKDGDDVIIIGVFKGESDPAYQQYQDAANNLREDYKFHHTFSTEIAKFLKVSQGQLVVMQPEKFQSKYEPRSHMMDVQGSTQDSAIKDFVLKYALPLVGHRKVSNDAKRYTRRPLVVVYYSVDFSFDYRAATQFWRSKVLEVAKDFPEYTFAIADEEDYAGEVKDLGLSESGEDVNAAILDESGKKFAMEPEEFDSDTLREFVTAFKKGKLKPVIKSQPVPKNNKGPVKVVVGKTFDSIVMDPKKDVLIEFYAPWCGHCKQLEPVYNSLAKKYKGQKGLVIAKMDATANDVPSDRYKVEGFPTIYFAPSGDKKNPVKFEGGDRDLEHLSKFIEEHATKLSRTKEEL"}}, "target": "Flag-CDV H (H protein of CDV 851, pCA-Flag-H-WT) (canine distemper virus, strain 851)", "assay": "affinity purification with mass spectrometry", "note": "No constants are given. Whether binding was seen depends on the method and setting. In cells and extracts the contact can be indirect. A yes stands for co-enrichment or nearness to the bait. Other partners may have been found.", "data": [{"binder": "B1", "values": [{"measurement": "binding", "result": "binds"}]}]}
